Publication doi:10.1101/2024.08.01.24310552
These are yes or no findings as the source states them, for the method shown. In cells and extracts the contact can be indirect. Some binding calls cover weakened binding; strength is not graded here. Where a sequence is shown, tags or fusion partners need not be part of it.

T1: NXT2 missense variant c.268G>T p.(Ala90Ser) (human) (UniProt Q9NPJ8)
T1 sequence: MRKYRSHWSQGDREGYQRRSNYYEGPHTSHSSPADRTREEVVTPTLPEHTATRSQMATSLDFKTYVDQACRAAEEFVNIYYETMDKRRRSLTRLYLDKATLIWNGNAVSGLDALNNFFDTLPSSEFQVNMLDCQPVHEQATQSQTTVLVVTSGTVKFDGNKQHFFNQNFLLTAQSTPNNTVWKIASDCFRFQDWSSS


Molecular target: T1, NXT2 missense variant c.268G>T p.(Ala90Ser) (human)
Assay: co-IP

Binder	binding
FLAG-tagged NXF3 (wildtype) (protein, UniProt Q9H4D5-1 1-531) MSLPSGHTTGHTDQVVQRRARCWDIYQRRFSSRSEPVNPGMHSSSHQQQDGDAAMHGAHMDSPVRYTPYTISPYNRKGSFRKQDQTHVNMEREQKPPERRMEGNMPDGTLGSWFKITVPFGIKYNEKWLLNLIQNECSVPFVPVEFHYENMHASFFVENASIAYALKNVSGKIWDEDNEKISIFVNPAGIPHFVHRELKSEKVEQIKLAMNQQCDVSQEALDIQRLPFYPDMVNRDTKMASNPRKCMAASLDVHEENIPTVMSAGEMDKWKGIEPGEKCADRSPVCTTFSDTSSNINSILELFPKLLCLDGQQSPRATLCGTEAHKRLPTCKGSFFGSEMLKNLVLQFLQQYYLIYDSGDRQGLLSAYHDEACFSLSIPFNPEDSAPSSFCKFFKDSRNIKILKDPYLRGELLKHTKLDIVDSLSALPKTQHDLSSFLVDMWYQTEWMLCFSVNGVFKEVEGQSQGSVLAFTRTFIATPGSSSSLCIVNDKLFVRDTSHQGTQSALFTLVPTAFSSSVPAFSQEQQKMLPS	binds
FLAG-tagged NXF2 (wildtype) (protein, UniProt Q9GZY0 1-626) MCSTLKKCGTYRTEVAECHDHGSTFQGRKKGGSSFRDNFDKRSCHYEHGGYERPPSHCQENDGSVEMRDVHKDQQLRHTPYSIRCERRMKWHSEDEIRITTWRNRKPPERKMSQNTQDGYTRNWFKVTIPYGIKYDKAWLMNSIQSHCSDRFTPVDFHYVRNRACFFVQDASAASALKDVSYKIYDDENQKICIFVNHSTAPYSVKNKLKPGQMEMLKLTMNKRYNVSQQALDLQNLRFDPDLMGRDIDIILNRRNCMAATLKIIERNFPELLSLNLCNNKLYQLDGLSDITEKAPKVKTLNLSKNKLESAWELGKVKGLKLEELWLEGNPLCSTFSDQSAYVSAIRDCFPKLLRLDGRELSAPVIVDIDSSETMKPCKENFTGSETLKHLVLQFLQQYYSIYDSGDRQGLLGAYHDEACFSLAIPFDPKDSAPSSLCKYFEDSRNMKTLKDPYLKGELLRRTKRDIVDSLSALPKTQHDLSSILVDVWCQTERMLCFSVNGVFKEVEGQSQGSVLAFTRTFIATPGSSSSLCIVNDELFVRDASPQETQSAFSIPVSTLSSSSEPSLSQEQQEMVQAFSAQSGMKLEWSQKCLQDNEWNYTRAGQAFTMLQTEGKIPAEAFKQIS	binds
